From patent US20240325544A1, “CATIONIC LIPID FOR COVALENT MODIFICATION OF PEPTIDES” (PharmalN Corporation, priority 2023, published 2024)
Some entries share one result that the patent states for a list of compounds. Bridge positions count the residues as written; N and C are the ends. Square brackets hold non-standard residues; d marks the D form. Peptide text beside a SMILES is read from it. * marks the point of attachment. Palmitoyl = CCCCCCCCCCCCCCCC(=O)*; Dab = NCC[C@H](N)C(=O)O; Dap = NC[C@H](N)C(=O)O; AEEA = NCCOCCOCC(=O)O

Test system: cGMP
Test: Plasma cGMP profile after single SC injection in CD-1 mice (FIG. 1B)
Format: in vivo
Conditions: 1.0 mg/kg SC
Experimental: The animals were kept in PharmaIN animal facility with controlled temperature (68-74° F.) and humidity (30-60%), and a 12-hour light/dark cycle. […] Lead buffer was used to formulate or dissolve all test articles on the day of administration. Blood sampling: Blood samples were collected via retro-orbital bleed at several timepoints (0, 0.5, 1, 2, 4, 6, 8, and 24 hours) and processed in K2EDTA tubes (2000× g; 15 min, 4° C. within 30 minutes after collection) to obtain plasma. Plasma samples were aliquoted and stored at −80° C. until analysis. Biochemical analysis: For pharmacokinetic study, plasma aliquots were thawed at 4° C. then analyzed using a commercially available CNP ELISA kit from Phoenix Pharmaceuticals (cat #EKE-012-03), which detects the cyclic structure of CNP and all CNP derivatives with the same level of reactivity to the ELISA kit. […] For pharmacodynamic or bioactivity study of cGMP, plasma aliquots were thawed at 4° C. then analyzed using a commercially available cGMP kit from Abcam (ab133052, Waltham, MA).

| Compound | Increase of baseline plasma cGMP levels |
| --- | --- |
| CCCCCCCCCCCCCCCC(=O)NCCOCCOCC(=O)NCCOCCOCC(=O)NCCOCCOCC(=O)N[C@@H](CN)C(=O)N[C@@H](CN)C(=O)NCC(=O)N[C@@H](CC(C)C)C(=O)N[C@@H](CO)C(=O)N[C@@H](CCCCN)C(=O)NCC(=O)N[C@H]1CSSC[C@@H](C(=O)O)NC(=O)CNC(=O)[C@H](CC(C)C)NC(=O)CNC(=O)[C@H](CO)NC(=O)[C@H](CCC(N)=O)NC(=O)[C@H](CO)NC(=O)CNC(=O)[C@H]([C@@H](C)CC)NC(=O)[C@H](CCCNC(=N)N)NC(=O)[C@H](CC(=O)O)NC(=O)[C@H](CC(C)C)NC(=O)[C@H](CCCCN)NC(=O)[C@H](CC(C)C)NC(=O)CNC(=O)[C@H](Cc2ccccc2)NC1=O [SEQ ID NO: 31] ({Palmitoyl-AEEA-AEEA-AEEA}-[Dap][Dap]GLSKGCFGLKLDRIGSQSGLGC-OH; disulfide 8-24; C-terminus assumed) | over 10 fold |
| CCCCCCCCCCCCCCCC(=O)NCCOCCOCC(=O)NCCOCCOCC(=O)NCCOCCOCC(=O)N[C@@H](CCN)C(=O)N[C@@H](CCN)C(=O)NCC(=O)N[C@@H](CC(C)C)C(=O)N[C@@H](CO)C(=O)N[C@@H](CCCCN)C(=O)NCC(=O)N[C@H]1CSSC[C@@H](C(=O)O)NC(=O)CNC(=O)[C@H](CC(C)C)NC(=O)CNC(=O)[C@H](CO)NC(=O)[C@H](CCC(N)=O)NC(=O)[C@H](CO)NC(=O)CNC(=O)[C@H]([C@@H](C)CC)NC(=O)[C@H](CCCNC(=N)N)NC(=O)[C@H](CC(=O)O)NC(=O)[C@H](CC(C)C)NC(=O)[C@H](CCCCN)NC(=O)[C@H](CC(C)C)NC(=O)CNC(=O)[C@H](Cc2ccccc2)NC1=O [SEQ ID NO: 29] ({Palmitoyl-AEEA-AEEA-AEEA}-[Dab][Dab]GLSKGCFGLKLDRIGSQSGLGC-OH; disulfide 8-24; C-terminus assumed) | over 10 fold |
